The results in this text go back to article doi:10.1101/322610.

By UniProt entry, the sequences of proteins in these tests, tags left out.
UniProt Q3V3Q7: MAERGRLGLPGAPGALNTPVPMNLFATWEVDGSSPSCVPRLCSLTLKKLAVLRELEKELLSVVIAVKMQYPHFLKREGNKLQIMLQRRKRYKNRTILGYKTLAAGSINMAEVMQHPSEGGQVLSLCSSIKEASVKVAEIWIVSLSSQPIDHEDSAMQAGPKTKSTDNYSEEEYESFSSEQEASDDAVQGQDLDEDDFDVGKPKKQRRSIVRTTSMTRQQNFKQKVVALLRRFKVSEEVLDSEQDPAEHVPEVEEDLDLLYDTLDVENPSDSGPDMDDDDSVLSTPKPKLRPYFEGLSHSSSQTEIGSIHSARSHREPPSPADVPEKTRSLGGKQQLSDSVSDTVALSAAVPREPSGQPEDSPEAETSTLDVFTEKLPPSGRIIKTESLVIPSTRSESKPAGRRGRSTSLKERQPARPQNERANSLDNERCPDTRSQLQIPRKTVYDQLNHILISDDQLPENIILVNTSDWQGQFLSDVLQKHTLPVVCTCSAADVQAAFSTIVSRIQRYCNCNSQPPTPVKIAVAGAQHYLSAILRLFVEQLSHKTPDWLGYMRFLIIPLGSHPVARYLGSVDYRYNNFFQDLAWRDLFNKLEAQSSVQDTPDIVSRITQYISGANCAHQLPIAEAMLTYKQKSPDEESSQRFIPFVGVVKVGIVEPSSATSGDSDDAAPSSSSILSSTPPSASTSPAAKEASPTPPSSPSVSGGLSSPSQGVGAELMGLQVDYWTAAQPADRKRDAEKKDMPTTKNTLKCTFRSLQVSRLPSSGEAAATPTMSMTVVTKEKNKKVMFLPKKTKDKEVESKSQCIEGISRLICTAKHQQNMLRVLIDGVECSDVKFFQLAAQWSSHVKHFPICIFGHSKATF

The target in this assay is phosphofurin acidic cluster sorting protein 2 (mouse) (mouse (endogenous in hippocampus)) (UniProt Q3V3Q7). As to the kind of experiment: co-IP.

No constants are given. Whether binding was seen depends on the method and setting. In cells and extracts the contact can be indirect. Some results given as binding are weak or reduced against the parent protein; the word gives no strength.

B1: mfn2 (mouse) (protein, UniProt Q80U63 1-757)
chain: MSLLFSRCNSIVTVKKDKRHMAEVNASPLKHFVTAKKKINGIFEQLGAYIQESASFLEDTHRNTELDPVTTEEQVLDVKGYLSKVRGISEVLARRHMKVAFFGRTSNGKSTVINAMLWDKVLPSGIGHTTNCFLRVGGTDGHEAFLLTEGSEEKKSVKTVNQLAHALHQDEQLHAGSMVSVMWPNSKCPLLKDDLVLMDSPGIDVTTELDSWIDKFCLDADVFVLVANSESTLMQTEKQFFHKVSERLSRPNIFILNNRWDASASEPEYMEEVRRQHMERCTSFLVDELGVVDRAQAGDRIFFVSAKEVLSARVQKAQGMPEGGGALAEGFQVRMFEFQNFERQFEECISQSAVKTKFEQHTVRAKQIAEAVRLIMDSLHIAAQEQRVYCLEMREERQDRLRFIDKQLELLAQDYKLRIKQITEEVERQVSTAMAEEIRRLSVLVDEYQMDFHPSPVVLKVYKNELHRHIEEGLGRNLSDRCSTAIASSLQTMQQDMIDGLKPLLPVSMRNQIDMLVPRQCFSLSYDLNCDKLCADFQEDIEFHFSLGWTMLVNRFLGPKNSRRALLGYSDQVQRPLPLTPANPSMPPLPQSSLTQEELMVSMVTGLASLTSRTSMGILVVGGVVWKAVGWRLIALSFGLYGLLYVYERLTWTTKAKERAFKRQFVEYASEKLQLIISYTGSNCSHQVQQELSGTFAHLCQQVDITRDNLEQEIAAMNKKVEALDSLQSRAKLLRNKAGWLDSELNMFTHQYLQPSR
B1: the binding entry is “binds”.
